Results reported in patent US20220251204A1.
These are yes or no findings as the source states them, for the method shown. Some results given as binding are weak or reduced against the parent protein; the word gives no strength.

Amino acid sequences for entries named in this document (tags omitted). A change or cut given only in a name is not applied to a line headed by its entry.
UniProt P43489: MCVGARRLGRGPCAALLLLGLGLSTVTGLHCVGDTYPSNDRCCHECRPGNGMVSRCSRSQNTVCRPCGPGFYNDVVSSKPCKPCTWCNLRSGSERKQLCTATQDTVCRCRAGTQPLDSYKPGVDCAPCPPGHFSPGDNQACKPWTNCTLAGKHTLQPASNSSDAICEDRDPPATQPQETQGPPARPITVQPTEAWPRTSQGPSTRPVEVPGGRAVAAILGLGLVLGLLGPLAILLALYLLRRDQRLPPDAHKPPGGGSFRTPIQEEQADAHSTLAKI

Key:
[1] = biological target: human OX40 expressed on cells (human) (UniProt P43489); test: flow cytometry (HyperCyt)
[2] = biological target: human OX40 expressed on cells (human) (UniProt P43489); test: flow cytometry (HyperCyt, FL4-H median) on Jurkat OX40 cells, one condition, concentration not given

binding [1]: binds
binding [2]: binds
B1: OX40 IgG4P (antibody, V domains shown)
VH: QVQLQESGPGLVKPSQTLSLTCAVYGGSFSSGYWNWIRKHPGKGLEYIGYISYNGITYHNPSLKSRITINRDTSKNQYSLQLNSVTPEDTAVYYCARYKYDYDGGHAMDYWGQGTLVTVSS
VL: DIQMTQSPSSLSASVGDRVTITCRASQDISNYLNWYQQKPGKAPKLLIYYTSKLHSGVPSRFSGSGSGTDYTLTISSLQPEDFATYYCQQGSALPWTFGQGTKVEIK
